According to the supplement of paper PMC3334620:
In all, about 33,000 sequences were measured (“E-score (-0.5 to 0.5)”: median about -0.0014, highest 2% from about 0.25 on). The list shows a part of the results.

What follows are sequences tested against T1, Cad1 (UniProt P24813) (assay: PBM E-score (8-mer binding enrichment) (E-score (-0.5 to 0.5)); higher = stronger / more preferred TF binding). Conditions: protein concentration: 100 nM; construct: GST-full length.
T1 sequence: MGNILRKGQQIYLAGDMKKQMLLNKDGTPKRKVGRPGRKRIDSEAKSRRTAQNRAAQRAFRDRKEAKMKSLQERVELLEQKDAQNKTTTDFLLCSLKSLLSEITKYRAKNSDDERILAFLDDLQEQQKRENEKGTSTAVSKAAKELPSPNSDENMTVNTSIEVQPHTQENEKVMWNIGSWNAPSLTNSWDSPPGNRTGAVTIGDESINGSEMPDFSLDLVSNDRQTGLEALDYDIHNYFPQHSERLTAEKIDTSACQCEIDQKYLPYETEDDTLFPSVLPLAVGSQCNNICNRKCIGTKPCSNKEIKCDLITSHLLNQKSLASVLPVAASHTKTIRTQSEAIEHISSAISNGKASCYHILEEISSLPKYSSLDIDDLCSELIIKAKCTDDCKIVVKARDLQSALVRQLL
In short: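 Bound GST-tagged yeast transcription factors, applied at about 100-200 nM to double-stranded universal all-10-mer Agilent arrays, were detected with fluorescent anti-GST. Scans were normalised with masliner. A modified Wilcoxon-Mann-Whitney statistic, the E-score, was assigned to each ungapped eight-base word pooled with its reverse complement by the Universal PBM Analysis Suite.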

Row | Sequence | PBM E-score
1 | GGAAACCC | 0.0386
2 | GCCTTTCC | -0.18
3 | GCATATCA | 0.278
4 | AGCAGTAT | 0.1
5 | AACGTATT | 0.0985
6 | GGGGAGAC | -0.357
7 | CAGCTAAA | -0.121
8 | CAACATGA | 0.144
9 | CACAGTGC | 0.0584
10 | ATCCACTA | 0.127
11 | CTCCCGAA | -0.14
12 | CTTCACGC | 0.26
13 | CCTTTCCG | -0.00857
14 | AACTCAGA | 0.0846
15 | AAAATGCA | -0.13
16 | ATCCCAGC | -0.127
17 | CTTACCTC | -0.0709
18 | ACGCTGCG | -0.0632
19 | CGAAAAAA | 0.178
20 | AGCCACTC | -0.137
21 | GGCATAGA | -0.0491
22 | GATGTTAC | 0.0872

Looked up one by one from the entries so far:
Row | Sequence | PBM E-score
20 | AGCCACTC | -0.137
7 | CAGCTAAA | -0.121
11 | CTCCCGAA | -0.14
22 | GATGTTAC | 0.0872
1 | GGAAACCC | 0.0386

(continued)

Row | Sequence | PBM E-score
23 | AAGTAGTC | 0.0212
24 | CAAGGCCG | 0.0901
25 | CGCTGCAG | -0.0252
26 | TCAGAGGA | -0.0809
27 | AAGTGGCT | -0.0711
28 | CGTCCCTC | -0.0857
29 | CCGTTTCC | -0.029
30 | CATGTTCG | -0.00821
31 | GGGATGGA | -0.0694
32 | TAACGTGA | -0.147
33 | CCGAAAGC | -0.218
34 | GCAGACTA | -0.03
35 | CGAAGCAA | 0.0503
36 | ACCCAGTC | -0.139
37 | CCTCAACA | 0.0958
38 | CGCTCAAG | -0.15
39 | TCCCAACA | -0.0655
40 | AGTCCTAT | 0.0597
41 | CACACTGC | -0.0205
42 | CAGTTCCA | 0.134
43 | AAAATCAC | 0.132
44 | CCCGCGAG | 0.011

Row | Sequence | PBM E-score
45 | CGAACCAA | 0.0391
46 | AAAGTTCG | 0.066
47 | GGACTTAA | -0.0564
48 | ATTTGCTA | 0.186
49 | AAAATTTT | 0.234
50 | AACCGTAG | -0.177
51 | GTAGAAAC | -0.154
52 | AAGGTGAA | -0.00719
53 | AGTCAAGA | 0.121
54 | CAAGCCCG | -0.153
55 | ACTTATAA | 0.279
56 | TCTGAGAA | 0.00624
57 | ATAAGTCA | 0.198
58 | GAAGTTAC | 0.0685
59 | CCAATACA | 0.0869
60 | GATTGTAC | -0.082
61 | AGTAGCAG | 0.0208
62 | ATCGCGAG | 0.264
63 | GGGAGCAC | -0.208
64 | CACCATAA | -0.00975
65 | TACCAGCA | 0.0626
66 | ATCATTCG | 0.141

Row | Sequence | PBM E-score
67 | AGATGGCG | 0.101
68 | ACCTGTGA | 0.126
69 | AGGTGTGG | -0.142
70 | GTCTAGGA | -0.092
71 | GTATTTTA | 0.17
72 | AGTAAATG | 0.111
73 | AACGATCC | -0.105
74 | ACTTTGAG | -0.0793
75 | CAAGCCGC | -0.146
76 | ATTGCATG | 0.16
77 | GCTTTGTA | 0.223
78 | CCCTGCCC | -0.359
79 | AATGGTCG | 0.0575
80 | AAGGGGGT | -0.389
81 | CAGTCCTC | -0.274
82 | ATCCCGTC | -0.0534
83 | ACGGTACA | 0.0323
84 | CAAAGGAG | -0.0961
85 | CATGACGA | -0.0124
86 | TCATGAGA | 0.00213
